Data as given in US20220273810A1 (IMCARE BIOTECH, published 2022).
Results are given in words; binding and its absence hold for the method and conditions named. Some entries that bind do so weakly or less than the wild type.

Legend:
[1] = molecular target: T1, AS-SPIK (Abnormal Secreted serine protease inhibitor Kazal) (Homo sapiens (Human)) (UniProt P00995); experiment: test of monoclonal antibodies of FIG. 1 (described in Example 1)
T1 sequence: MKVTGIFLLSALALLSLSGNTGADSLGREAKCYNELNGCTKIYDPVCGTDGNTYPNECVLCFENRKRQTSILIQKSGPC

[2] = molecular target: T1, AS-SPIK (Abnormal Secreted serine protease inhibitor Kazal) (Homo sapiens (Human)); experiment: ELISA, plate-immobilized partially purified AS-SPIK from S2-3 cells
[3] = molecular target: T1, AS-SPIK (Abnormal Secreted serine protease inhibitor Kazal) (Homo sapiens (Human)); experiment: sandwich ELISA, S2-3 medium, complex captured on polyclonal anti-SPIK plate
[4] = molecular target: T1, AS-SPIK (Abnormal Secreted serine protease inhibitor Kazal) (Homo sapiens (Human)); experiment: ELISA on a plate immobilised with partially purified AS-SPIK from S2-3 cells, OD450nm; antibody concentration not given

Measured: binding

B1: IM-G7 (antibody, V domains shown)
VH: QSVKESEGGLFKPTDTLTLTCTVSGFSLSSNVISWVRQAPGKGLEWIGDIYVSGNTDYASWAKSRSTITRNANLNTVTLKMTSLTAADTATYFCARYDMSSDAFDPWGPGTLVTVSS
VL: AYDMTQTPASVEVAVGGTVTIKCQASQNIGSYLSWYQHKPGQRPRLLMYRASTLASGVSSRFKGSGSGTEFTLTISGVQCDNAATYYCQQGYTNSGVDNTFGGGTEVVVKG
notes: Rabbit monoclonal antibody
binds: [1] | [2] | [3] | [4]

B2: IM-A6 (antibody, V domains shown)
VH: QSVKESEGGLFKPTDTLTLTCTVSGFSLSSYAISWVRQAPGNGLEWIGRINSGGATDYASWARSRSTITRDTNLNTVTLQMTSLTAADTATYFCAKEEYSYGGAYGMWGPGTLVTVSS
VL: AYDMTQTPASVSAAVGGTVTIKCQASESISTYLSWLQQKPGQPPKLLIYKASTLASGVPSRFKGSGSGTEFTLTISGVQCDDAATYYCQQDYTISNVGNVFGGGTEVVVKG
notes: Rabbit monoclonal antibody; also called I-A6
binds: [1] | [2] | [3] | [4]

B3: IM-C6 (antibody, V domains shown)
VH: QSVKESEGGLFKPTDALTLTCTVSGFSLSSYAISWVRQAPGSGLEWIGAINTYGGTYYASWAKSRSTITRNTNENTVTLKMTSLTAADTATYFCARDFDSDAYTSASGGMDPWGPGTLVTVSS
VL: AYDMTQTPASVEVAVGGTVTIKCQASQSINNYLSWYQQIPGQPPKLLIYRASTLASGVSSRFKGSGSGTQFTLTISGVQCADAATYYCQQGYTSNVDNVFGGGTEVVVKG
notes: Rabbit monoclonal antibody
binds: [1] | [2] | [3] | [4]

B4: IM-D3 (antibody, V domains shown)
VH: QSVKESEGGLFKPTDTLTLTCTVSGFSLSSYAIGWVRQAPGNGLEWIGTIVTSGIPYYANWAKSRSTITRNTNLNTVTLKMTSLTAADTATYFCARNLDPAYSTTRLDLWGQGTLVTVSS
VL: AYDMTQTPASVSEPVRGTVTIKCQASQSISTALAWYQQKPGQPPKLLIYAASYLASGVPSRFSGSGSGTEFTLTISDLECADAATYYCHQGYSASNVDNTFGGGTEGGVKG
notes: Rabbit monoclonal antibody
binds: [1] | [2] | [3] | [4]

B5: IM-D5 (antibody, V domains shown)
VH: QSVKESEGGLFKPTDTLTLTCTVSGFSLSSYAISWVRQAPGNGLEWIGAIGKSGSAYYASWAKSRSTITRNTNLNTVSLKMTSLTAADTATYFCARWDSVGWTDARLDLWGQGTLVTVSS
VL: AYDMTQTPASVEVAVGGTVTIKCQASQSISTALAWYQQKPGQRPKLLIYGASKLASGVSSRFSGSGSGTEFTLTISGVECADAATYYCQQGYETSNVDNAFGGGTEVVVKG
notes: Rabbit monoclonal antibody
binds: [1] | [2] | [3] | [4]

B6: IM-F5 (antibody, V domains shown)
VH: QSVKESEGGLFKPTDTLTLTCTVSGFSLSIYGVSWVRQAPGNGLEWIGIIYASGSADYASWAKSRSTITRNTNLNTVTLKMTSLTAADTATYFCAREDDTYGYTSSIWGPGTLVTVSS
VL: AYDMTQTPASVSAAVGGTVTIKCQASQSISSYLNWYQQKPGQPPKRLIYRASTLASGVSSRFKGSGSGTQFTLTISGVECADAATYYCQQDYSSNNIDNTFGGGTEVVVKG
notes: Rabbit monoclonal antibody
binds: [1] | [2] | [3] | [4]

B7: IM-G6 (antibody, V domains shown)
VH: QSVKESEGGLFKPTDTLTLTCTVSGFSLSSYPISWVRQAPGNGLEWIGDIYASGSILYASWATGRSTITRNTNLNTVTLKMTSLTAADTATYFCARVSYSGGTDIWGPGTLVTVSS
VL: AYDMTQTPASVEVAVGGTVTIKCQASEDIESYLAWYQQKPGQPPKLLIYRASTLPSGVPSRFKGSGSGTEFTLTISDLECADAATYYCQQDYSSSNVDNTFGGGTEVVVKG
notes: Rabbit monoclonal antibody
binds: [1] | [2] | [3] | [4]
